In the supplement of paper PMC7666118:
The other results are listed elsewhere or left out.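 Rule for the calls: active = dose-dependent thermal stabilisation significant by F-test of dose-response against flat model at 10% FDR; inactive = not significant.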

Amino acid sequences for entries named in this document (tags omitted). A change or cut given only in a name is not applied to a line headed by its entry.
UniProt Q32P44: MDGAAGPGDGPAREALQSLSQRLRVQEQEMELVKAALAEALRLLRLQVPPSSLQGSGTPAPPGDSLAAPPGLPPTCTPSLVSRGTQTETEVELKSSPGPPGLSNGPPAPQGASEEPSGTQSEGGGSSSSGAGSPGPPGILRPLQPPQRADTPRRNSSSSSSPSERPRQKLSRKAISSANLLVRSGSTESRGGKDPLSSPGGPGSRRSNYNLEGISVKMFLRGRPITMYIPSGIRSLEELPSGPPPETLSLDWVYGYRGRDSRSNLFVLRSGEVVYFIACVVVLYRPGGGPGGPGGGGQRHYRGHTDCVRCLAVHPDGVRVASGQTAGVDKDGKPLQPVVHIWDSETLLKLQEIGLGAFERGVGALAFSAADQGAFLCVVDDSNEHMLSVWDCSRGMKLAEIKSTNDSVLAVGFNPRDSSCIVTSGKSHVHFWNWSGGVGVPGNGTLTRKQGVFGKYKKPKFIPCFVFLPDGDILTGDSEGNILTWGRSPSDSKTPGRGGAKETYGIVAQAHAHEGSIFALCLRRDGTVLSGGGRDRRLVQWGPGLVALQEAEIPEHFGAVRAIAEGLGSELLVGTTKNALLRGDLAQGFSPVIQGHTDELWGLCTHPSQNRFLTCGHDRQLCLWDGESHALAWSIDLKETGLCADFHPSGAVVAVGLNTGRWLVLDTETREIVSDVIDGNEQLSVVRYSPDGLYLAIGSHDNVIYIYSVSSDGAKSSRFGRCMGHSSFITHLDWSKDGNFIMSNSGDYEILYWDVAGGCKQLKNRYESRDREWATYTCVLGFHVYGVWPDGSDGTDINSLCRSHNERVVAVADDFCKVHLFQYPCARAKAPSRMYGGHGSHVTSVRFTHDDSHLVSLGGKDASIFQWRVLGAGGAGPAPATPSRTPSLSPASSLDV
UniProt Q6UN15: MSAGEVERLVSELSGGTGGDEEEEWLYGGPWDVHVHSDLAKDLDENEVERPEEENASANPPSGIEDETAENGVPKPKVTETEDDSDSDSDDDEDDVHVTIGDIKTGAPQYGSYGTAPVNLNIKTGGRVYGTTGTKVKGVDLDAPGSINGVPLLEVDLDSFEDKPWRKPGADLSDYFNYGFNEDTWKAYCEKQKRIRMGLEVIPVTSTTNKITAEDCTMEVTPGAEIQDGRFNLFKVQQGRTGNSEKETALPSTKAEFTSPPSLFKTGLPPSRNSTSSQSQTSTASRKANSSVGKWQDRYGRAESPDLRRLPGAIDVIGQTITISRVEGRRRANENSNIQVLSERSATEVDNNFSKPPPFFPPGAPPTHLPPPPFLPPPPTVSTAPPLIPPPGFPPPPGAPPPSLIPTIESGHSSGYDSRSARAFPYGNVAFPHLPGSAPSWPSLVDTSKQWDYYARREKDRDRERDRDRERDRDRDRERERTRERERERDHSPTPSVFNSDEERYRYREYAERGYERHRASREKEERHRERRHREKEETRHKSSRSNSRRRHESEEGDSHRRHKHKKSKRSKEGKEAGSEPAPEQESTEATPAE
UniProt Q13216, whole entry: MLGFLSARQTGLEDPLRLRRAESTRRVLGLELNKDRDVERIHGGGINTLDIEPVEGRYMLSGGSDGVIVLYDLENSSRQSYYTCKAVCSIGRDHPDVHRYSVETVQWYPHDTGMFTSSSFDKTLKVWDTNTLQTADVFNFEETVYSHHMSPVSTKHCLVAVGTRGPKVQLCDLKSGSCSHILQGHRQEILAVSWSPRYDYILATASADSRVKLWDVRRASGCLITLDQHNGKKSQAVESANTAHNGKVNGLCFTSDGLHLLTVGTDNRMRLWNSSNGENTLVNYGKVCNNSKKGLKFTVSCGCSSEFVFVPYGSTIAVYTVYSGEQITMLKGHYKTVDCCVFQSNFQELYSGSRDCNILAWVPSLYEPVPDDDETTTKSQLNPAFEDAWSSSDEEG
UniProt P14324: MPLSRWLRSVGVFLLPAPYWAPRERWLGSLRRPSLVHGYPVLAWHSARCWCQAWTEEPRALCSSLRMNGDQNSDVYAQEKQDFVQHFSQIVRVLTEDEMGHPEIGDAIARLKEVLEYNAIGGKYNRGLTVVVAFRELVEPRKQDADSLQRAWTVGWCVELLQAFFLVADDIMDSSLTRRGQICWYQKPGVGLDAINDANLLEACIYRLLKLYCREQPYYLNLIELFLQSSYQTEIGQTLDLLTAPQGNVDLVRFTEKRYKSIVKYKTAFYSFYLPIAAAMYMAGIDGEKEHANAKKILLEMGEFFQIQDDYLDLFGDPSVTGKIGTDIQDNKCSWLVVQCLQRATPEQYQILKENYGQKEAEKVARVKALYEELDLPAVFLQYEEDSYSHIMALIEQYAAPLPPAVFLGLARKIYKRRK
UniProt Q8N8S7: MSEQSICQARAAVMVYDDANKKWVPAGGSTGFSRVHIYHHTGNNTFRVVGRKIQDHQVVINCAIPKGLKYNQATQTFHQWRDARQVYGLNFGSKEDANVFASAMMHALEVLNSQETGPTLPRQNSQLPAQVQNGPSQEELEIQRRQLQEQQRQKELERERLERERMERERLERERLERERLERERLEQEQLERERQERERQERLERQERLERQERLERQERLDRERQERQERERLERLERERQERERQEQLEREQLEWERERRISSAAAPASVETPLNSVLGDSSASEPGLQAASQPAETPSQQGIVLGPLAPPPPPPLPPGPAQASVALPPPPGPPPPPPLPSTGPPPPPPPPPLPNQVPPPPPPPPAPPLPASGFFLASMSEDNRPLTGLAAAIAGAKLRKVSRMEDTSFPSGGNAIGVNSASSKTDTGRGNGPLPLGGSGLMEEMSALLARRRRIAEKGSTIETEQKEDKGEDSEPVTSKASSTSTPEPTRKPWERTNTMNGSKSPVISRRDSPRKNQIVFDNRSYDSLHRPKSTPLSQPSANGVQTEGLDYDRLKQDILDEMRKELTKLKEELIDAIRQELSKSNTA
UniProt P06241, whole entry, looked up: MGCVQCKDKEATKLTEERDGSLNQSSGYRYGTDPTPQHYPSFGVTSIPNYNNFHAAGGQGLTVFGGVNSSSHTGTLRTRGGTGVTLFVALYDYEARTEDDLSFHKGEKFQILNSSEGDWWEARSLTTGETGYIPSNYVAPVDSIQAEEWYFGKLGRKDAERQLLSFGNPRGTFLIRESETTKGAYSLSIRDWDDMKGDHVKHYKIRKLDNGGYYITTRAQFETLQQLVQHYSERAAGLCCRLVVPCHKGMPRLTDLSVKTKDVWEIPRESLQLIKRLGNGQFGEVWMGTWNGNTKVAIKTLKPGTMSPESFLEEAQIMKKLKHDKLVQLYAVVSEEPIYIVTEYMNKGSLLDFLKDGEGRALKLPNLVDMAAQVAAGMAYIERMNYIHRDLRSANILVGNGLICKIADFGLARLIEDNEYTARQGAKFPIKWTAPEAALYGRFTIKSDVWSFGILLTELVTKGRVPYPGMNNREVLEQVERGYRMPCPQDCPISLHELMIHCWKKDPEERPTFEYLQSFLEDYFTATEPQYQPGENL
UniProt Q9UK61: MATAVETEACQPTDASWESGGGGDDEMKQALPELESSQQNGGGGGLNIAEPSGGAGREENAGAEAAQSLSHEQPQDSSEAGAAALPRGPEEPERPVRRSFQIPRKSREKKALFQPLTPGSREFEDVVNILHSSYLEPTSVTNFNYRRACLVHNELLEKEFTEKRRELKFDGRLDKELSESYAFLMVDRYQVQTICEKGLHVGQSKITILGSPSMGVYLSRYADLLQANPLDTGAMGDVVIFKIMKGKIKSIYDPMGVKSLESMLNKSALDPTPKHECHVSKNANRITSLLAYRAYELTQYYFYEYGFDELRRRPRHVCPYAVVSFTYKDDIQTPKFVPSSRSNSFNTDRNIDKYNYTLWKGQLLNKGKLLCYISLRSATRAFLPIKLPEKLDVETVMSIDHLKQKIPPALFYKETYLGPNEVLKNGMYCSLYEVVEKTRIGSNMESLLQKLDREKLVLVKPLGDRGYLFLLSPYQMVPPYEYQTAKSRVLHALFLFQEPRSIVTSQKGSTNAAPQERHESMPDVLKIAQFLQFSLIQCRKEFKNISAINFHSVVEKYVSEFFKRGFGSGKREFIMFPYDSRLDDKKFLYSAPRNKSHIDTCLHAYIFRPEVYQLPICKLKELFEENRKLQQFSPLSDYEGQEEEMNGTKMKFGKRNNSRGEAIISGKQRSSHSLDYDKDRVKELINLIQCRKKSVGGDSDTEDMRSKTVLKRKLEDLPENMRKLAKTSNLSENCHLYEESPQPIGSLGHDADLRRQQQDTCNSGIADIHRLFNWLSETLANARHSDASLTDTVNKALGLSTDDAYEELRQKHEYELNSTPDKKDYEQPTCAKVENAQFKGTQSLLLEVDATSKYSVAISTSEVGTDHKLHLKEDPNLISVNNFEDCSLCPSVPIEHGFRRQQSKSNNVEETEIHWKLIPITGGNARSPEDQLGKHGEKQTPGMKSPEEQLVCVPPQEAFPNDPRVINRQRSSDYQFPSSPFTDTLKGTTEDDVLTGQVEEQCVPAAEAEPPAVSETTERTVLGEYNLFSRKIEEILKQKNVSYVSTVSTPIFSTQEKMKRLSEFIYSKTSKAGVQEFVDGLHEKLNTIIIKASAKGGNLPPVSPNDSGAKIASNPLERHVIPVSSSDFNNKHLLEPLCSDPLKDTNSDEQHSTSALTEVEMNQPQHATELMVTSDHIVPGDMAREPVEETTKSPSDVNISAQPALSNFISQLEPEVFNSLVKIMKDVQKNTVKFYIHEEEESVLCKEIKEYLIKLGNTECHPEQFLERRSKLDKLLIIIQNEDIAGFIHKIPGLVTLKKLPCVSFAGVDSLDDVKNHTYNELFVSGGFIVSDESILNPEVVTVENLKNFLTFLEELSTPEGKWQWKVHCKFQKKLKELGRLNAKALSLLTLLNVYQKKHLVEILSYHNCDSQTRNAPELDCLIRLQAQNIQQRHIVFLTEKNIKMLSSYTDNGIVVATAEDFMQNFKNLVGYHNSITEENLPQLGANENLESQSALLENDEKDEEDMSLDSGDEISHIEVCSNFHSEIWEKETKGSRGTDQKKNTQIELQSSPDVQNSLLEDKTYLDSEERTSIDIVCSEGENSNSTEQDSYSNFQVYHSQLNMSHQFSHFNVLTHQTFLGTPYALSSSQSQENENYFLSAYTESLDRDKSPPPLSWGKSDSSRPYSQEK
UniProt Q14153: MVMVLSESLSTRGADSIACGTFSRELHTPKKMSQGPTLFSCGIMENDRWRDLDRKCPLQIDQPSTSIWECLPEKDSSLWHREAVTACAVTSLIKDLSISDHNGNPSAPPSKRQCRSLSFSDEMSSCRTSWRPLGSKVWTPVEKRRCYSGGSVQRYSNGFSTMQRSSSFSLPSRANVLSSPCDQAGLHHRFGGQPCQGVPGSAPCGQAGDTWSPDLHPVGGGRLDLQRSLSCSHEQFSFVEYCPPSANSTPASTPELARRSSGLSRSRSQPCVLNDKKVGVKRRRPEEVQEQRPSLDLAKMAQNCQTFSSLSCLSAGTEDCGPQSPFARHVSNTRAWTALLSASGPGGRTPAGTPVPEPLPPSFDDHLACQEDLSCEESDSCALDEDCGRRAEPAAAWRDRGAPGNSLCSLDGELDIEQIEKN
UniProt Q9UPT5: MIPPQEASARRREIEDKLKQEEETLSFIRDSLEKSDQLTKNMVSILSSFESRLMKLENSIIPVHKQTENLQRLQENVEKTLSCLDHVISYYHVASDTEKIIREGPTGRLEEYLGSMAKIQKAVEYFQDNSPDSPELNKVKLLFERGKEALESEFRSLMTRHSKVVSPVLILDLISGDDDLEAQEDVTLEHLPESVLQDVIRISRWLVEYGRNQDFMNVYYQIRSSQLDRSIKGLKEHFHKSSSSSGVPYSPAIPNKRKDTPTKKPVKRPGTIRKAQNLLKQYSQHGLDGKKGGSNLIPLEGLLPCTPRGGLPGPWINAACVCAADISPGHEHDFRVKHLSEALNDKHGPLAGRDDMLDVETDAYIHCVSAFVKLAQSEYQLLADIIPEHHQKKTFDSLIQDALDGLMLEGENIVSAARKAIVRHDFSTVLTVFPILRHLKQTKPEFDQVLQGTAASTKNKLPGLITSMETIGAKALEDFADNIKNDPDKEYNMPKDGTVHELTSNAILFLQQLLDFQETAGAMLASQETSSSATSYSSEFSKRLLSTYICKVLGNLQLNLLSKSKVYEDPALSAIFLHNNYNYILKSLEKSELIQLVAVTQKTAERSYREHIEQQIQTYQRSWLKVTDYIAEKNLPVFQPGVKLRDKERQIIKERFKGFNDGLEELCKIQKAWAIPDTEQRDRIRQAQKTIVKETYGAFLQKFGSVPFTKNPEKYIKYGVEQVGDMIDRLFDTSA
UniProt Q9NYK6: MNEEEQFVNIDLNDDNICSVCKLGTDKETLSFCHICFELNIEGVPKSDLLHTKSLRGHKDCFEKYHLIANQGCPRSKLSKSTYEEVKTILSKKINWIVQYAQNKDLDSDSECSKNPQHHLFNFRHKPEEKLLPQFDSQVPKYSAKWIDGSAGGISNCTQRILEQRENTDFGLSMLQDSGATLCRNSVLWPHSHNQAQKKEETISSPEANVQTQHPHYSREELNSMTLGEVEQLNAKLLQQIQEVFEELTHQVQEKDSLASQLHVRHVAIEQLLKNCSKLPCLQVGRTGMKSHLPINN

compound: Nc1nc2c(ncn2[C@@H]2O[C@H](COP(=O)(O)OP(=O)(O)OP(=O)(O)O)[C@@H](O)[C@H]2O)c(=O)[nH]1; assay: dose-dependent thermal stabilisation call (2D-TPP, DLPTP, 10% FDR) (binary (1 = stabilised)); higher = stabilised by the compound; conditions: system: Jurkat gel-filtered lysate; concentration range 1-500 µM
Experimental: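 2D thermal proteome profiling in gel-filtered Jurkat E6.1 lysate (2 mg/ml) treated with NaGTP (0, 1, 10, 100, 500 uM) for 10 min at room temperature, then heated 3 min at one of 12 temperatures (42-63.9 C). Soluble protein was quantified by TMT10 MS. The value is the DLPTP call of the paper: dose-dependent thermal stabilisation over all temperatures at 10% FDR (F-test of a dose-response against a flat model); one experiment, one call per tested protein.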

Target | dose-dependent thermal stabilisation call
EIF1 (UniProt P41567) | inactive: 0
FKBP1A (UniProt P62942) | inactive: 0
FEN1 (UniProt P39748) | inactive: 0
FAM175B (UniProt Q15018) | inactive: 0
EML3 (UniProt Q32P44) | inactive: 0
FLCN (UniProt Q8NFG4) | inactive: 0
ENY2 (UniProt Q9NPA8) | inactive: 0
FAM76B (UniProt Q5HYJ3) | inactive: 0
FTH1 (UniProt P02794) | inactive: 0
ERCC5 (UniProt P28715) | inactive: 0
FSD1 (UniProt Q9BTV5) | active: 1
FIP1L1 (UniProt Q6UN15) | inactive: 0
FARSB (UniProt Q9NSD9) | inactive: 0
ERCC8 (UniProt Q13216) | inactive: 0
ESF1 (UniProt Q9H501) | inactive: 0
FDPS (UniProt P14324) | inactive: 0
FXR1 (UniProt P51114) | active: 1
EXOSC8 (UniProt Q96B26) | inactive: 0
FIZ1 (UniProt Q96SL8) | inactive: 0
FGFR1OP (UniProt O95684) | inactive: 0

Target | dose-dependent thermal stabilisation call
FAM46C (UniProt Q5VWP2) | inactive: 0
FAT1 (UniProt Q14517) | inactive: 0
FAHD2A (UniProt Q96GK7) | inactive: 0
FAM111B (UniProt Q6SJ93) | inactive: 0
FBXO3 (UniProt Q9UK99) | inactive: 0
ENAH (UniProt Q8N8S7) | inactive: 0
ERO1A (UniProt Q96HE7) | inactive: 0
FYN (UniProt P06241) | inactive: 0
EIF5B (UniProt O60841) | active: 1
EIF2B2 (UniProt P49770) | inactive: 0
FAM208A (UniProt Q9UK61) | active: 1
FAM53B (UniProt Q14153) | inactive: 0
FBXO22 (UniProt Q8NEZ5) | inactive: 0
EXOC7 (UniProt Q9UPT5) | inactive: 0
FCHSD2 (UniProt O94868) | inactive: 0
EVI5L (UniProt Q96CN4) | active: 1
FAM45A (UniProt Q8TCE6) | inactive: 0
EIF3E (UniProt P60228) | inactive: 0
EURL (UniProt Q9NYK6) | inactive: 0
ELL (UniProt P55199) | active: 1

A different layout for some results above:

| Target | dose-dependent thermal stabilisation call |
| --- | --- |
| ENY2 (UniProt Q9NPA8) | inactive: 0 |
| FAHD2A (UniProt Q96GK7) | inactive: 0 |
